# Test results reported in US7829529B2, “Use of factor VIIa or a tissue factor antagonist for regulating gene expression and cell migration or chemotaxis” (Novo Nordisk Health Care A/G, priority 1999, dated 2010).
# For at least one compound, name, drawing or mass did not settle the structure.
# Test system: Human foreskin fibroblasts AG1523
# Experiment: Chemotaxis assay, leading front technique in modified Boyden chamber, towards PDGF-BB
# Format: cell-based
# Settings: 30 min pretreatment, 100 nM FVIIa, 0.1 ng/ml PDGF-BB
# Method: Fibroblasts expressing active TF (FIG. 1A and FIG. 1B) were incubated with 100 nM of FVIIa and seeded in the upper part of the modified Boyden chamber; while media containing 10% FBS and PDGF-BB at different concentrations were added below the 150 μm micropore filter. The migration of the cells under conditions where medium containing 10% FBS without PDGF-BB was added below the filter was used as a measure of random migration, and calculated as 100% migration. A significant migration response was recorded at a concentration of 0.01 ng/ml PDGF-BB in cells stimulated by FVIIa compared to 1 ng/ml PDGF-BB for cells not ligated with FVIIa, i.e. a 100-fold difference in concentration (FIG. 2). At 0.01-0.1 ng/ml PDGF-BB the migration response to FVIIa increased dose dependently, starting at 25 nM and with a maximal effect at 50-100 nM FVIIa (FIG. 3A-D). […] To test whether the proteolytically active FVIIa was mandatory for the hyperchemotactic response to PDGF-BB, fibroblasts were also incubated with 100 nM FFR-FVIIa and assayed in the Boyden chamber in the same way (FIG. 2). […]
# Chemotaxis assay. […] Migration was measured as the distance of the two furthest migrating fibroblast nuclei of one high-power field (12.5×24) in focus. The migration distance in each filter was calculated as the mean of the readings of at least three different parts of the filter. […]
smiles,measurement,value
O=c1cc(N2CCOCC2)oc2c(-c3ccccc3)cccc12 [LY294002],effect on FVIIa/TF-mediated chemotactic response to PDGF-BB,unaffected
